PubChem BioAssay AID1259314 | Drosophila RNAi Screening Center | 2017
Shown is one part, drawn at random, of about 3,100 reagents. 289 of them (9.3%) were called active. 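Active includes both higher and lower ATP than plate average; check the z-score sign for direction.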 The numbers tell different reagents against one gene apart. Not stated in the record: the amount of reagent.

Purpose: 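Genes whose knock-down alters cell survival under toxic manganese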 (primary screen)
Cells: Drosophila S2R+ cells
Reagent: long dsRNA against Drosophila genes
Timing: 5 days (4 days knock-down, then 1 day metal exposure)
Conditions: manganese chloride added to 15 mM for 24 hours
Measured: 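Luciferase ATP signal used as a proxy for viable cell number, reported as one averaged z-score per dsRNA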
Reading the numbers: mean ATP z-score: higher = more ATP than the plate average, more viable cells under manganese
Active means: 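a mean ATP z-score past 1.5 in either direction is called active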
Meaning of the calls: active = strong ATP change, up or down; inactive = no strong ATP change

Against CG2126, the values are mean ATP z-score -0.00696; inactive.
Knock-down of drd (drop dead) #1 resulted in: mean ATP z-score 0.0221; inactive.
Knock-down of drd (drop dead) #2 resulted in: mean ATP z-score -0.523; inactive.
Depletion of Ranbp21 #1 gave: mean ATP z-score -0.522; inactive.
Ranbp21 #2 scored mean ATP z-score -0.308; inactive.
For CG42260, the values are mean ATP z-score 0.111; inactive.
Knock-down of clumsy gave: mean ATP z-score -0.634; inactive.
Silencing of Dscam1 (Down syndrome cell adhesion molecule 1) #1 resulted in: mean ATP z-score 1.52; active.
Knock-down of Dscam1 (Down syndrome cell adhesion molecule 1) #2 resulted in: mean ATP z-score -0.361; inactive.
Against Dscam1 (Down syndrome cell adhesion molecule 1) #3, the values are mean ATP z-score 0.538; inactive.
With knock-down of Gr9a (Gustatory receptor 9a) #1, the record shows mean ATP z-score -0.517; inactive.
Against Gr9a (Gustatory receptor 9a) #2, the entry reads mean ATP z-score -0.112; inactive.
nSyb (neuronal Synaptobrevin) #1 gave mean ATP z-score -0.373; inactive.
With knock-down of nSyb (neuronal Synaptobrevin) #2, the record shows mean ATP z-score 0.729; inactive.
After knock-down of ine (inebriated) #1 the results were mean ATP z-score -0.374; inactive.
Silencing of ine (inebriated) #2 gave: mean ATP z-score -0.266; inactive.
TM9SF4 (Transmembrane 9 superfamily protein member 4) #1 showed mean ATP z-score -0.317; inactive.
Knock-down of TM9SF4 (Transmembrane 9 superfamily protein member 4) #2 came out at: mean ATP z-score -0.737; inactive.
Depletion of Lgr3 (Leucine-rich repeat-containing G protein-coupled receptor 3) #1 gave: mean ATP z-score 0.0689; inactive.
Against Lgr3 (Leucine-rich repeat-containing G protein-coupled receptor 3) #2, the values are mean ATP z-score 0.555; inactive.
Silencing of lbm (late bloomer) #1 gave: mean ATP z-score 1.9; active.
For lbm (late bloomer) #2, the values are mean ATP z-score 0.857; inactive.
With knock-down of Zip71B (Zinc/iron regulated transporter-related protein 71B) #1, the record shows mean ATP z-score -0.859; inactive.
After knock-down of Zip71B (Zinc/iron regulated transporter-related protein 71B) #2, the screen gave mean ATP z-score -0.332; inactive.
spi (spitz) #1 scored mean ATP z-score -0.26; inactive.
With knock-down of spi (spitz) #2, the record shows mean ATP z-score -0.615; inactive.
Silencing of Tmtc3 (Transmembrane O-mannosyltransferase targeting cadherins 3) came out at: mean ATP z-score -1.02; inactive.
heix (heixuedian) #1 scored mean ATP z-score 0.895; inactive.
Against heix (heixuedian) #2, the values are mean ATP z-score 0.405; inactive.
After knock-down of CG13325 #1 the results were mean ATP z-score -0.253; inactive.
For CG13325 #2 the deposit lists mean ATP z-score 0.0727; inactive.
After knock-down of Ir75b (Ionotropic receptor 75b) the results were mean ATP z-score -0.573; inactive.
